Here are results for one sequence from patent US20070099232.

Data set [1] deals with BtEcR/BtUSP heterodimer (Bemisia tabaci). The data set can be described thus: EMSA. Particulars: greatly enhanced by Mg2+ (5 mM MgCl2); enhanced by ponasterone A when added before probe; competed by excess unlabelled EcRE; room temperature; protein translated in vitro; label: 32P (Klenow fill-in).
The next data set concerns BtUSP (Bemisia tabaci). Put plainly: EMSA. Particulars: USP alone does not bind as homodimer; protein translated in vitro; label: 32P (Klenow fill-in). (In EMSA bound probe runs differently from free probe, usually more slowly.)

The exact form of at least one protein or probe is not confirmed. For some assays here: A negative result means that nothing was seen under these conditions.

Consider “AGCTTCAAGGGTTCAATGCACTTGTCCATCG / AGCTCGATGGACAAGTGCATTGAACCCTTGA [hsp27 EcRE]”, for which the results for the binding result (in data set [1]; in the data set with BtUSP (Bemisia tabaci)) were “binds” and “no binding”, respectively.
